Measurements as given in paper PMC5903342, “Atorvastatin Downregulates In Vitro Methyl Methanesulfonate and Cyclophosphamide Alkylation-Mediated Cellular and DNA Injuries” (Oxidative Medicine and Cellular Longevity, 2018).

Assays:
[1] = system: Salmonella enterica serovar typhimurium TA104; assay: Antimutagenicity assay (Salmonella/microsome), strain TA104; assay type: cell-based; conditions: TA104, cotreatment
Text: (§1) Salmonella enterica serovar typhimurium (S. typhimurium) strains TA100, TA1535, TA104, and TA102 from the authors' laboratory stock were used as described by Maron and Ames in the antimutagenicity assay.
(§2) We carried out the coexposure protocol of the antimutagenicity assay to investigate the potential of the compound to protect against alkylation-mediated genetic mutation in S. typhimurium TA100, TA102, TA104, and TA1535 strains according to Ajith and Soja. The test proceeded both in the absence and presence of a metabolic activation system (4% S9 mix, Aroclor preinduced, from MOLTOX Inc., USA). DMSO 1% served as the negative control. For the assays without metabolic activation, 0.5 mL of a 0.1 mol/L sodium phosphate buffer (pH 7.4) was added, and for the assays in the presence of metabolic activation, 0.5 mL of S9 mix was mixed with a 0.1 mL culture medium (2 × 10^8 cells/mL) plus 0.1 mL of AVA solutions (0–1000 μM) and 0.1 mL MMS (100 μg/plate) in the absence of metabolic activation and CPA (100 μg/plate) in metabolic active conditions. The mixtures were incubated in a shaker at 37°C (preincubation) under light protection. After a total of 60 min of cotreatment, the mixtures were added to and mixed with 2 mL top agar containing 0.05 mmol/L L-histidine and D-biotin for the S. typhimurium strains. Each of these was then spread on a minimal glucose agar (1.5% agar, Vogel-Bonner medium E, containing 2% glucose) plate. After the top agar solidified, the plates were incubated at 37°C for 60–72 h. Each tester strain was assayed in triplicate and repeated at least twice, and the number of revertant colonies was counted for each tester strain and treatment group. The counts of revertant colonies were obtained to build a dose-response curve and calculate the percentage of reduction.

[2] = system: Salmonella enterica serovar typhimurium TA102; assay: Antimutagenicity assay (Salmonella/microsome), strain TA102; assay type: cell-based; conditions: TA102, cotreatment
Text: as §1, §2

[3] = system: Salmonella enterica serovar typhimurium TA1535; assay: Antimutagenicity assay (Salmonella/microsome), strain TA1535; assay type: cell-based; conditions: TA1535, cotreatment
Text: as §1, §2

[4] = system: Salmonella enterica serovar typhimurium TA100; assay: Antimutagenicity assay (Salmonella/microsome), strain TA100 (co-, pre- and posttreatment); assay type: cell-based
[5] = in vitro; assay type: cell-based; conditions: human
[6] = system: Salmonella enterica serovar typhimurium TA98 and TA100 strains; conditions: sodium azide or 4-nitro-o-phenylenediamine, TA98 and TA100, absence of metabolic activation; cited from earlier work
[7] = system: human lymphocyte; conditions: human lymphocytes, even at nM concentrations; cited from earlier work
[8] = +S9, CPA (150 μM), atorvastatin 20 μM
[9] = +S9, CPA (150 μM), atorvastatin 100 μM
[10] = +S9, CPA (150 μM), atorvastatin 200 μM
[11] = +S9, CPA (150 μM), atorvastatin 1000 μM
[12] = −S9, MMS (100 μM), atorvastatin 20 μM
[13] = −S9, MMS (100 μM), atorvastatin 100 μM
[14] = −S9, MMS (100 μM), atorvastatin 200 μM
[15] = −S9, MMS (100 μM), atorvastatin 1000 μM

For CC(C)c1c(C(=O)Nc2ccccc2)c(-c2ccccc2)c(-c2ccc(F)cc2)n1CC[C@@H](O)C[C@@H](O)CC(=O)O [AVA, atorvastatin], the “MI (mutagenicity index)” value [1, 8] was 2.13, the “MI (mutagenicity index)” value [1, 9] was 2.05 and the “MI (mutagenicity index)” value [1, 10] was 1.99. The “MI (mutagenicity index)” value [1, 11] was 1.82, the “MI (mutagenicity index)” value [1, 12] was 2.00 and the “MI (mutagenicity index)” value [1, 13] was 1.94. The “MI (mutagenicity index)” value [1, 14] was 1.84, the “MI (mutagenicity index)” value [1, 15] was 1.55 and the “MI (mutagenicity index)” value [2, 8] was 2.02. For the same molecule, the “MI (mutagenicity index)” value [2, 9] was 2.00, the “MI (mutagenicity index)” value [2, 10] was 1.94 and the “MI (mutagenicity index)” value [2, 11] was 1.77. For the same molecule, the “MI (mutagenicity index)” value [2, 12] was 2.10, the “MI (mutagenicity index)” value [2, 13] was 2.06 and the “MI (mutagenicity index)” value [2, 14] was 1.93. For the same molecule, the “MI (mutagenicity index)” value [2, 15] was 1.77, the “MI (mutagenicity index)” value [3, 8] was 2.63 and the “MI (mutagenicity index)” value [3, 9] was 2.60. The “MI (mutagenicity index)” value [3, 10] was 2.25, the “MI (mutagenicity index)” value [3, 11] was 2.04 and the “MI (mutagenicity index)” value [3, 12] was 2.00. For the same molecule, the “MI (mutagenicity index)” value [3, 13] was 1.60, the “MI (mutagenicity index)” value [3, 14] was 1.24 and the “MI (mutagenicity index)” value [3, 15] was 1.16. For the same molecule, the “Protection against MMS or CPA mutagenicity” value ([4]; TA100, cotreatment) was “did not protect”, the “MI (mutagenicity index)” value ([4]; TA100, cotreatment, +S9, CPA (150 μM), atorvastatin 20 μM) was 2.10 and the “MI (mutagenicity index)” value ([4]; TA100, cotreatment, +S9, CPA (150 μM), atorvastatin 100 μM) was 2.06. For the same molecule, the “MI (mutagenicity index)” value ([4]; TA100, cotreatment, +S9, CPA (150 μM), atorvastatin 200 μM) was 2.00, the “MI (mutagenicity index)” value ([4]; TA100, cotreatment, +S9, CPA (150 μM), atorvastatin 1000 μM) was 1.93 and the “MI (mutagenicity index)” value ([4]; TA100, cotreatment, −S9, MMS (100 μM), atorvastatin 20 μM) was 2.04. The “MI (mutagenicity index)” value ([4]; TA100, cotreatment, −S9, MMS (100 μM), atorvastatin 100 μM) was 1.98, the “MI (mutagenicity index)” value ([4]; TA100, cotreatment, −S9, MMS (100 μM), atorvastatin 200 μM) was 1.90 and the “MI (mutagenicity index)” value ([4]; TA100, cotreatment, −S9, MMS (100 μM), atorvastatin 1000 μM) was 1.86. The “MI (mutagenicity index)” value ([4]; TA100, posttreatment, +S9, CPA (150 μM), atorvastatin 20 μM) was 2.46, the “MI (mutagenicity index)” value ([4]; TA100, posttreatment, +S9, CPA (150 μM), atorvastatin 200 μM) was 2.34 and the “MI (mutagenicity index)” value ([4]; TA100, posttreatment, +S9, CPA (150 μM), atorvastatin 1000 μM) was 2.30. For the same molecule, the “MI (mutagenicity index)” value ([4]; TA100, posttreatment, −S9, MMS (100 μM), atorvastatin 20 μM) was 2.03, the “MI (mutagenicity index)” value ([4]; TA100, posttreatment, −S9, MMS (100 μM), atorvastatin 100 μM) was 1.96 and the “MI (mutagenicity index)” value ([4]; TA100, posttreatment, −S9, MMS (100 μM), atorvastatin 200 μM) was 1.87. For the same molecule, the “MI (mutagenicity index)” value ([4]; TA100, posttreatment, −S9, MMS (100 μM), atorvastatin 1000 μM) was 1.84, the “MI (mutagenicity index)” value ([4]; TA100, pretreatment, +S9, CPA (150 μM), atorvastatin 20 μM) was 1.30 and the “MI (mutagenicity index)” value ([4]; TA100, pretreatment, +S9, CPA (150 μM), atorvastatin 100 μM) was 1.27. For the same molecule, the “MI (mutagenicity index)” value ([4]; TA100, pretreatment, +S9, CPA (150 μM), atorvastatin 200 μM) was 1.11, the “MI (mutagenicity index)” value ([4]; TA100, pretreatment, +S9, CPA (150 μM), atorvastatin 1000 μM) was 1.03 and the “MI (mutagenicity index)” value ([4]; TA100, pretreatment, −S9, MMS (100 μM), atorvastatin 20 μM) was 1.68. For the same molecule, the “MI (mutagenicity index)” value ([4]; TA100, pretreatment, −S9, MMS (100 μM), atorvastatin 100 μM) was 1.14, the “MI (mutagenicity index)” value ([4]; TA100, pretreatment, −S9, MMS (100 μM), atorvastatin 200 μM) was 1.11 and the “MI (mutagenicity index)” value ([4]; TA100, pretreatment, −S9, MMS (100 μM), atorvastatin 1000 μM) was 1.02. The CC50 at 24 h [5] was over 1000 µM, the “Antimutagenic (chemopreventive) effect against direct mutagens” value [6] was “significantly inhibited the mutagenic response” and the “Genotoxic damage (chromosome aberrations, sister chromatid exchange, comet assay)” value [7] was “genotoxic damage”.
